Laboratory results as given in patent publication US7425533B2, “Modified hirudin proteins and T-cell epitopes in hirudin” (Merck Patent GmbH, priority 2003, dated 2008).
Residue numbers refer to the chain shown, from its start. In names and notes the source's numbering stands. Some of these results come from one statement about several compounds together.

B1: M 1: hirudin mutein I29A L30A, SEQ ID NO: 4 (protein)
chain: VVYTDCTESGQNLCLCEGSVVCGQGNKCAAGSDGEKNQCVTGEGTPKPESHNDGDFEEIPEEYLQ
modifications: modified hirudin
B2: M 2: hirudin mutein I29R L30H, SEQ ID NO: 5 (protein)
chain: B1 chain with A29R, A30H
modifications: modified hirudin

Molecular target: T1, thrombin (Homo sapiens, UniProt P00734)
T1 construct: purchased Diagnostica Stago (via Axis Shield Diagnostics, Dundee, UK) Stachrom HCII assay kit (catalogue number not given)
Assay: chromogenic thrombin inhibition assay
Assay type: biochemical
Settings: cell-culture supernatants from transfected HEK.293 cells, quantified by ELISA, 2 fold serial dilutions
Excerpt: A “thrombin inhibition assay” according to the present context means an in vitro assay able to provide a reading of the functional capability of the test protein. In the present instance this means the ability of a given hirudin mutein to evoke a specific measurable chromogenic response. Particularly suitable assays are exemplified herein using thrombin and the chromogenic thrombin substrate H-D-Phe-Pep-Arg-pNA. Other assay formats can be contemplated to also provide quantitative estimations of specific activity of the test molecules and permit ED50 determinations. […]
The functional activity of the modified hirudin proteins was assessed using a chromogenic thrombin inhibition assay. […] The chromogenic substrate H-D-Phe-Pep-Arg-pNA is then added and any residual free thrombin present will cleave the substrate to form H-D-Phe-Pep-Arg-OH and pNA that can then be detected spectrophotometrically at 405 nm […]
The plate was warmed to 37° C. for 5 minutes followed by addition of 40 μl thrombin and incubated for 120 seconds at 37° C. with shaking. […] 40 μl acetic acid was added to quench reaction and the plate was read spectrophotometrically at 405 nm. Absorbance at 405 nm vs hirudin concentration was plotted using Sigma plot (Sigma Poole, UK) and IC50 values calculated by fitting a sigmoidal equation. […]

Molecule | Relative activity (ED50 variant/ED50 WT hirudin) (listed as M1) | Relative activity (ED50 variant/ED50 WT hirudin) (listed as M2)
B1 | 1.2-1.4 | –
B2 | – | 1.2-1.4
